The target of experiment [1] is Atg3 (endogenous, mouse macrophage RAW264.7) (mouse (endogenous in RAW264.7)) (UniProt Q9CPX6). The experiment is described as follows: co-IP; RAW264.7 cells infected with ME49wt or ME49Δcdpk3 parasites (MOI 3), 4 h after infection; polyclonal anti-Atg3, anti-Atg5 or anti-Atg7 antibodies precipitate the host protein; blot with rabbit polyclonal CDPK3 antibody; lysis buffer 50 mM HEPES pH 7.4, 150 mM NaCl, 2 mM EGTA, 1% Triton X-100.

The chains behind the UniProt entries cited, without tags or fusion partners.
UniProt Q9CPX6: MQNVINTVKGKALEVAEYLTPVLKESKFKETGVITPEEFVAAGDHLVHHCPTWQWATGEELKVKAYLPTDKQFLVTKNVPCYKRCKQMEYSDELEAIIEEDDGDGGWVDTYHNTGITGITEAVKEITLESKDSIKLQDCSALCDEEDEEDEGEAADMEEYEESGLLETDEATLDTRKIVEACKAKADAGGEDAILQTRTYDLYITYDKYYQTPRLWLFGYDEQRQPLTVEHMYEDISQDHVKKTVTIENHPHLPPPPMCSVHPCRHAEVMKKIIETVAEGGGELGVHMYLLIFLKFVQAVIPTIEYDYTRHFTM
UniProt Q99J83: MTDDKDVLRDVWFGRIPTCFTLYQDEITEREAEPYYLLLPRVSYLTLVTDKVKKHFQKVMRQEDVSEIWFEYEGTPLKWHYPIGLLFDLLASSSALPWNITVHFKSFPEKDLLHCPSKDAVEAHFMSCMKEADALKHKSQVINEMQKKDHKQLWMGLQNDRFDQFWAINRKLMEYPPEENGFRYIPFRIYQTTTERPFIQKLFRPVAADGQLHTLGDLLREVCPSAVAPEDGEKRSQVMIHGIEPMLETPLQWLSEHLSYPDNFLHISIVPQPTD

The target of experiment [2] is Atg5 (endogenous, mouse macrophage RAW264.7) (mouse (endogenous in RAW264.7)) (UniProt Q99J83). Described as above.

From PMC9226670 come the findings set out here.

These are yes or no findings as the source states them, for the method shown. Binding seen in cells or lysates may run through a third protein. Binding can be weak; no strength is given.

Regarding “CDPK3 from the ME49wt parasite (endogenous Toxoplasma gondii CDPK3) (from UniProt A0A125YQG4) (enzyme)”, the binding entry in experiment [1] and in experiment [2] was “binds” throughout.
